Test results from patent publication US20090031445A1.
Results are given in words; binding and its absence hold for the method and conditions named. Binding seen in cells or lysates may run through a third protein. Some entries that bind do so weakly or less than the wild type. Tags and fused reporters may be left off the sequences shown.

Key:
[1] = molecular target: T1, BAD03576-HA fusion protein (OsYchF1 with in-frame HA tag, in vitro translated) (Oryza sativa (rice)) (UniProt Q6Z1J6); assay: co-immunoprecipitation with anti-HA antibody from rice extract mixed with in vitro translated BAD03576-HA, Western blot with anti-OsGAP1
T1 sequence (chain, biotinylated lysines from Transcend biotin-lysyl-tRNA in vitro translation): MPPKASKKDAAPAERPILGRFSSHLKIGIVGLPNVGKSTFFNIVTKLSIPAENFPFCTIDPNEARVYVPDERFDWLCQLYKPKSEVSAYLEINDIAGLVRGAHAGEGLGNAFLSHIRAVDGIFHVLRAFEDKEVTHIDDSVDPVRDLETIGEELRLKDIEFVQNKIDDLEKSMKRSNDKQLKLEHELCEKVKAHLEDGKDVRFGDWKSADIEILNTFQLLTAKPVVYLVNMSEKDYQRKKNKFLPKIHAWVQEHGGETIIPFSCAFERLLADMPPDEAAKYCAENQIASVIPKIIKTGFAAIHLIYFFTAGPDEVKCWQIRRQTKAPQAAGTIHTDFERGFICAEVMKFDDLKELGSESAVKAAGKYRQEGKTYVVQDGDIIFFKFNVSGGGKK

[2] = molecular target: T1, BAD03576-HA fusion protein (OsYchF1 with in-frame HA tag, in vitro translated) (Oryza sativa (rice)); assay: co-immunoprecipitation with anti-HA antibody, Western blot with anti-OsGAP1

- binding [1]: binds
- binding [2]: binds
B1: OsGAP1 (rice GTPase activating protein-1) (protein)
chain: MLGHLVGLVKVRVVRGVNLAVRDLRSSDPYVIVRMGKQKLKTRVIKKTTNPEWNDELTLSIEDPAVPVRLEVYDKDTFIDDAMGNAELDIRPLVEVVKMKIEGVADNTVVKKVVPNRQNCLAEESTIYISEGKVKQDVVLRLRDVECGEIELQLQWVDIPGSKGV
